Assay results: paper doi:10.1101/2021.02.21.431301
These are yes or no findings as the source states them, for the method shown. In cells and extracts the contact can be indirect. Sequences can lack the tags named with a protein.

What was measured:
Assay in all cases: co-IP
[1] = target: GFP-MdDAM1, full length (N. benthamiana) (apple (Malus x domestica))
[2] = target: GFP-MdDAMb, full length (N. benthamiana) (apple (Malus x domestica))
[3] = target: GFP-MdFLC, full length (N. benthamiana) (apple (Malus x domestica))

Measured: binding

B1: AtHB33-MyC (5xMyC-AtHB33) (protein, UniProt Q9FRL5 1-309)
chain: MDMRSHEMIERRREDNGNNNGGVVISNIISTNIDDNCNGNNNNTRVSCNSQTLDHHQSKSPSSFSISAAAKPTVRYRECLKNHAASVGGSVHDGCGEFMPSGEEGTIEALRCAACDCHRNFHRKEMDGVGSSDLISHHRHHHYHHNQYGGGGGRRPPPPNMMLNPLMLPPPPNYQPIHHHKYGMSPPGGGGMVTPMSVAYGGGGGGAESSSEDLNLYGQSSGEGAGAAAGQMAFSMSSSKKRFRTKFTTDQKERMMDFAEKLGWRMNKQDEEELKRFCGEIGVKRQVFKVWMHNNKNNAKKPPTPTTTL
no binding: all assays above
